Laboratory results as given in patent US20230035479A1, “METHODS AND COMPOSITIONS FOR REDUCING HAIR GREYING” (President and Fellows of Harvard College, priority 2019, published 2023).

Tested on: C57BL/6J mice
Settings: mouse, in vivo

N=C(N)NCCN1CCCCCCC1 [guanethidine]
effect on hair greying upon RTX injection: suppressed hair greying
